Laboratory results taken from paper PMC8189435, “Timer-based proteomic profiling of the ubiquitin-proteasome system reveals a substrate receptor of the GID ubiquitin ligase” (Molecular Cell, 2021).
These are yes or no findings as the source states them, for the method shown. In cells and extracts the contact can be indirect. Some entries that bind do so weakly or less than the wild type. Sequences can lack the tags named with a protein.

T1: Gid1-tFT (chromosomally tagged Gid1-mCherry-sfGFP) (S. cerevisiae) (UniProt P53076)
T1 sequence: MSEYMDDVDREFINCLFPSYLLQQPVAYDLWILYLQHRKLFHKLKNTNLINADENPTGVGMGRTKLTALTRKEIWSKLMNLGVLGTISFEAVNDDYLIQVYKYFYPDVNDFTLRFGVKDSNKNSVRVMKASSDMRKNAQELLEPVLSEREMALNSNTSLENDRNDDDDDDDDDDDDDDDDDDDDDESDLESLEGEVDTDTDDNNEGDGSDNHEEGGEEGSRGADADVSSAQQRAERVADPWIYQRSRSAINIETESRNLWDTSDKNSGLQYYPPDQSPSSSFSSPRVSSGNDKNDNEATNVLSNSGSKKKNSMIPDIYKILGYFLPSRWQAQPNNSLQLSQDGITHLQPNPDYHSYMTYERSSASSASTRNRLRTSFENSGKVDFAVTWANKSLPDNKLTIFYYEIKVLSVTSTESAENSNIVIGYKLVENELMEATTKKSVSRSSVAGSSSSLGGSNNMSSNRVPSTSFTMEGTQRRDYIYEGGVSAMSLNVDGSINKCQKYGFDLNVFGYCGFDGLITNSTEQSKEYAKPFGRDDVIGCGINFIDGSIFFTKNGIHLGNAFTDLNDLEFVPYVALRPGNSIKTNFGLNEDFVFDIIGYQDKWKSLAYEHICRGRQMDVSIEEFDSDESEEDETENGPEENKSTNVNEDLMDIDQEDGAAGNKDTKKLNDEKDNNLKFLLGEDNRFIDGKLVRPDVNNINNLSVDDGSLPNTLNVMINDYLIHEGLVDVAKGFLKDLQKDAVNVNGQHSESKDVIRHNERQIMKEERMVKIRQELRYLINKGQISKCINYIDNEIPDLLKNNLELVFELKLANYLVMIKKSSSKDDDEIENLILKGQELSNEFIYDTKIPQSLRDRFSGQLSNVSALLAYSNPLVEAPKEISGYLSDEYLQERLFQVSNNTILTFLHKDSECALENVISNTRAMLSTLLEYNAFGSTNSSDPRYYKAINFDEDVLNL

B1: HA-Gid11 (Ylr149c/Gid11) (natural protein, S. cerevisiae, UniProt Q99296 1-730, looked up)
chain: MTIDGTGQSKEALQDERLNTGSDKVYQNYMMPALELYDAKVSINHWQLRDCIKPGSMNQSKLYYIYDHSIRVLDTDSSVLRSPVRRHNSIQPSNSGKNSTEKTSTKGSRTTGSYISKNLHVPSEKLVEFNFKPRCFTELNGLTVCGGLIGSDDKGFPSNWNRLAQDANISLPPPSQPINISKNISFPINSHYSNPNIWKGIVEFYNQETDTMMTFTLGQFINNCVTLYDRASMQFDLFACNNDGHLYQCDVSNRDVTLVKRYADLKFPLNNASLSHDGQTMVVSGDSNKFAVYNQNELTNQFSLHYDNHPSWGSSVNRVRRIPRFALPDESEYIENIYEAPNSDHGFYNSFSENDLQFATVFQNGTCAIYDIRNMATPMAEISSTRPHSHNGAFRVCRFSYGLDDLLFISEHQGRVHVVDTRNYVNHQVIVIPDKVNMEYINERKHNTNHNFTTNNNNENESNDSKNELQGADYRSLSRRRFSLPSMPNVTTEPWITMAQRIPKKYLEPQILPFPKVMDKISNESVLFSTKGSSSSDVAHPYKRRCSFRVRRVSTSAPTADYSNNNVNASLGTPAADSIATSSSNSAPQNLIDPLILSHQQASNDVFEDDEYYEAYNDVHSTYRVSSDYHGVSARAFESFLRPPSTPDLPSDDDNFAANSRNNRGTSNFLRRPVITTQESNEFSEENNISGIDWVEDRNGSSLIIGTDYGIMRWNINSWARRSFSSYDLC
notes: Gid11 (Ylr149c), S. cerevisiae, WD40/YVTN repeat-like domain protein; the last 4 residues are printed as 727-730, so the protein ends at residue 730; also called HA-YLR149C; source: S. cerevisiae, overexpressed from plasmid pRS413-GPDpr-HA-YLR149C, in lysate; not shown: HA, N-terminal, kept
B2: HA-Luc-Gid11^C20 (last 20 residues of Gid11 fused to luciferase) (domain or fragment, UniProt Q99296 711-730)
chain: IMRWNINSWARRSFSSYDLC

Molecular target: T1, Gid1-tFT (chromosomally tagged Gid1-mCherry-sfGFP) (S. cerevisiae)
Test: co-IP; tFT-tagged bait precipitated with rabbit anti-GFP on Dynabeads from yeast lysates (log phase, SC medium lacking histidine, 2% glucose); IP buffer 50 mM Tris-HCl pH 7.5, 100 mM NaCl, 1% Triton X-100, 2 mM EDTA; 2 h at 4°C; HA-tagged prey detected by anti-HA blot; WT or gid5Δ cells

| Binder | binding |
| --- | --- |
| B1 | binds |
| B2 | binds |
